# Data from publication PMC9152131.
# Chains of the proteins cited; added tags and fusions are not shown.
# UniProt O14964: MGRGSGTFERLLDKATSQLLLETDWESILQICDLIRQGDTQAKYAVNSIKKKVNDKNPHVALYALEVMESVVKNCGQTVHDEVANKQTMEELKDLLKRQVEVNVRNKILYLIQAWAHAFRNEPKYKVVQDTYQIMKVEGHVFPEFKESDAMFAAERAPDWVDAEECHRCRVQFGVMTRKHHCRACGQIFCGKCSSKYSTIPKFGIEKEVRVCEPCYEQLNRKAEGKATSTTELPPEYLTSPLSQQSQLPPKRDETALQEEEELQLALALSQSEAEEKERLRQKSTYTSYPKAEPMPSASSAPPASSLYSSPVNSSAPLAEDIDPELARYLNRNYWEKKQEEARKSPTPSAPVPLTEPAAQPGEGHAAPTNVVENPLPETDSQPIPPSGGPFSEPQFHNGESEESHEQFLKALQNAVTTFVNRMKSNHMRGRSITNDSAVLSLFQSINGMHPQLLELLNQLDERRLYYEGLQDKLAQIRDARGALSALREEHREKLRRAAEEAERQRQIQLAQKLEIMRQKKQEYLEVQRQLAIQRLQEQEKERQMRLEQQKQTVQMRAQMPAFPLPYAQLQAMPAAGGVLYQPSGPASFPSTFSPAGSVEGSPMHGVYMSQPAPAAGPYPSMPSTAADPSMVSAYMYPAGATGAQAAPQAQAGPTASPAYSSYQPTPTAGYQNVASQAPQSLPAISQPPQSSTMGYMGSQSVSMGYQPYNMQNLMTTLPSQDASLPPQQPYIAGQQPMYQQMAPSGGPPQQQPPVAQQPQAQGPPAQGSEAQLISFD
# No constants are given. Whether binding was seen depends on the method and setting. In cells and extracts the contact can be indirect. Some results given as binding are weak or reduced against the parent protein; the word gives no strength. Tags and fused reporters may be left off the sequences shown.
# Target: RFP-Hrs (UniProt O14964)
# Experiment: co-IP; lysates of N2a cells cotransfected with RFP-Hrs and KIF13A- or KIF13B-FRB-Myc; Dynabeads coupled to anti-mCherry antibodies, 4°C, 2 h; lysis buffer 50 mM Tris-Base, 150 mM NaCl, 1% Triton X-100, 0.5% deoxycholic acid; blot probed with Myc and mCherry antibodies; in one panel the cells were treated with control or high K+ Tyrodes solution for 2 h
binder,measurement,value
"KIF13A-FRB-Myc (pBa-FRB-3myc-KIF13A tail 361–1749) (domain or fragment, UniProt Q9EQW7 361-1749) DPNAKVIRELREEVEKLREQLSKAEAMKPPELKEKLEESEKLIKELTVTWEEKLRKTEAIAQERQRQLESMGISLETSGIKVGDDKCYLVNLNADPALNELLVYYLKDHTRVGADTSQDIQLFGIGIQPEHCEIDIAADGDITLTPKENARSCVNGTLVCNTTQLWHGDRILWGNNHFFRINLPKRKRRDWLKDFERETSSAEHDLDAASEASSEPDYNYEFAQMEVIMKTLNSNDPVQNVVQVLEKQYLEEKRTALEEQRLMYERELEQLRQQLSPERQPPSSASDRLAYSSQTAQQKVTQWAEERDELFRQSLAKLREQLVKANTLVREANFLAEEMSKLTDYQVTLQIPAANLSANRKRGAIVSEPAIQARRKGKGTQVWTIEKLENKLIDMRDLYQEWKENVPEAKRLYGKRGDPFYEAQENHNLIGVANVFLECLFCDVKLQYAVPIISQQGEVAGRLHVEVTRITGTIPERMAEDDSSENSSESGSLEVVDSSGEVIHRVKKLTCRVIIKEATGLPISLSNFVFCQYTFWDQCESTVAAPVVDPDVPSPQSKDAQYTVTFSHCKDYVVTVTEEFLEFISDGALAIEVWGHRCAGNGSPIWEVDSLHAKTRTLHDRWNEVTRRIEVWISILELNELGDYAAVELHQAKDVNTGGVFQLRQGHSRRVQVTVKPVQHSGTLPLMVEAILSVSIGCVTARSTKLQRGLDSYQEEDLNCVRERWSDALIKRREYLDEQIKKVSNKKEKTEDDMEREARLVEQWVGLTEERNAVLVPAPGSGIPGAPADWVPPPGMETHIPVLFLDLNADDLSANEQLVGPHASGVNSILPKEHGSQFFYLPIIKHSDDEVSATASWDSSVHDSLHLNRVTPQNERIYLIVKTTVQLSHPAAMELVLRKRIAANIYNKQSFTQSLKRRISLINICYSCGVTYEIVSNIPKATEEIEDRETLALLAARSENEGTLDGETYIEKYTRGVLQVENILSLERLRQAVTVKEALSTKARHIRRSLSTPNVHNVSSSRPDLSGFDEDDKGWPENQLDVSDYSSSYQDVACYGTLPRDSPRRSKEGCPSENPHALTVSPFKAFSPQPPKFFKPLMPVKEEHKKRLALEARPLLSQEDSEEEENELEALSRKLMLTQPYVPVEFADFSVYNASLENREWSSSKADLTDSRALEKAVSRSPTTSSLTSGYFSHSASNATLSDMAVPSSDSSDQLAVSTKEVECAEPPGPSLAPDVRRASNQELTEVGRGSGKDETIAVPLEENSALPKGTPSPQSIPEESSRMPCRTASCSELDVGPSKDGHQAREFCPGEVTIEHTTNILEDHSFTEFMGVSDGKDFDGLADCSVGEPSRRRALTNETDHKGIPERPPDADRLHPKIENDQEATATR",binding,binds
